Results taken from the supplement of paper PMC12823440, “Inhibitors supercharge kinase turnover through native proteolytic circuits” (Nature, 2025).
Some of the results follow. The calls rarely recur for the same compound in another form.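 Kinases, fused to nanoluciferase, were expressed in K562 cells; luminescence was measured every 4 h from 2 to 18 h as percent of control (DMSO = 100%, positive control = 0%). A time point is decreased if signal falls significantly (2 sigma). Hits were called by the authors by a rule that is not shown; the count of time points alone does not decide it.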

Protein sequences, listed by entry. Tags and fused reporters are not part of them. Lines headed by an entry give the natural chain unless they say otherwise; changes in a name come on top.
UniProt P06241, whole entry, looked up: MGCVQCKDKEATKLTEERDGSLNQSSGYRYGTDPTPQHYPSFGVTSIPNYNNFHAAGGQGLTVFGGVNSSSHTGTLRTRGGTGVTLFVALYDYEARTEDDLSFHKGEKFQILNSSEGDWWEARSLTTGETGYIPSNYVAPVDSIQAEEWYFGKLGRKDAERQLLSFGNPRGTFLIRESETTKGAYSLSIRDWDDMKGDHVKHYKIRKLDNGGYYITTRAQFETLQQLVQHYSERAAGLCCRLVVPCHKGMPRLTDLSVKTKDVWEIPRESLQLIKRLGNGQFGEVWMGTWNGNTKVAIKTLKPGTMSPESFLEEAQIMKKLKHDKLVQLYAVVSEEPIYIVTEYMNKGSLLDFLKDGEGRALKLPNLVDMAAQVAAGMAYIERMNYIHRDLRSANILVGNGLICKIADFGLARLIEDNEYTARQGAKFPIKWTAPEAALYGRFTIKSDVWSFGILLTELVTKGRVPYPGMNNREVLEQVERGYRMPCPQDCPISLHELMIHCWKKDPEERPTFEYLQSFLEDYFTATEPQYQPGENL
UniProt P49840: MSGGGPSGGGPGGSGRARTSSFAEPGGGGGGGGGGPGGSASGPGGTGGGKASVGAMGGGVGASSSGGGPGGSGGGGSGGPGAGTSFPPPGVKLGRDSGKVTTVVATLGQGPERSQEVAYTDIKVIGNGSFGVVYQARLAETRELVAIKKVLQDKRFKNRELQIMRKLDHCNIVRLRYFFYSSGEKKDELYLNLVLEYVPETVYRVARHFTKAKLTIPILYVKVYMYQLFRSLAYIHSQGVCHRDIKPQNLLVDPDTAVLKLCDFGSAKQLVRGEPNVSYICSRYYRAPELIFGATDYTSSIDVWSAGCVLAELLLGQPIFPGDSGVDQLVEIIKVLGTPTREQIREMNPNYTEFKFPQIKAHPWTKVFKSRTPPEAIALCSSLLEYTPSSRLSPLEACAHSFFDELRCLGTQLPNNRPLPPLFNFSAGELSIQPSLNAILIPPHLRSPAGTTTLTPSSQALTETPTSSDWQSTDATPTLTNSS
UniProt Q9Y616: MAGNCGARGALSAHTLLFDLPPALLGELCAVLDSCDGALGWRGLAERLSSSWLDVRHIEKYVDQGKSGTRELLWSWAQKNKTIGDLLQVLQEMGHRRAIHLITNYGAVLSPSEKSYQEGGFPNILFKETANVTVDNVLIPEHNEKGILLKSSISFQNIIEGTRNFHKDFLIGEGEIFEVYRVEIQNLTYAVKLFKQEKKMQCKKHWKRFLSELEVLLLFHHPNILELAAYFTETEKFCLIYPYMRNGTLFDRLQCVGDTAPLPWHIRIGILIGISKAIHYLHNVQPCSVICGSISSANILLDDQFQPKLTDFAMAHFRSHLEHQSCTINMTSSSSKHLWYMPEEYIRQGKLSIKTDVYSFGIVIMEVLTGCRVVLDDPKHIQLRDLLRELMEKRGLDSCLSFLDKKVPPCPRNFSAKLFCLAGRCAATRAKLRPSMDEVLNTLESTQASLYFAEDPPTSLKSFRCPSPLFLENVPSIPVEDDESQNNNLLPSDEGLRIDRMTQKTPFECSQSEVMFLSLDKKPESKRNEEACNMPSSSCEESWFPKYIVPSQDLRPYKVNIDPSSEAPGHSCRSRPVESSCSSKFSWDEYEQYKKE
UniProt P06239: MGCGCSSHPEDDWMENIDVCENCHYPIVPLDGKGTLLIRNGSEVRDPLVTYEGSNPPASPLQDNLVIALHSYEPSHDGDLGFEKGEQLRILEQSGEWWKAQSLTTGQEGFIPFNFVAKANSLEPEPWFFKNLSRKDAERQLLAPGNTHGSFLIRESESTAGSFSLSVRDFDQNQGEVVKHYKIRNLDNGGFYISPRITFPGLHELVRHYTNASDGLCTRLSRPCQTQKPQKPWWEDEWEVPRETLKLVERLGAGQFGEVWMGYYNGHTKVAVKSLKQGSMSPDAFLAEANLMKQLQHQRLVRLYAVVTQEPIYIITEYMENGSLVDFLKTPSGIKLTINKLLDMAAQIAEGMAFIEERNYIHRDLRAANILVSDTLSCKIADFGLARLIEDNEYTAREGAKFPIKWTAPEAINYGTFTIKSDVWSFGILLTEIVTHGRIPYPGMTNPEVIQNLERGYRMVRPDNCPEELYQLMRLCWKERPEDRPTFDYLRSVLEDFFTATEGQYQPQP
UniProt P53667: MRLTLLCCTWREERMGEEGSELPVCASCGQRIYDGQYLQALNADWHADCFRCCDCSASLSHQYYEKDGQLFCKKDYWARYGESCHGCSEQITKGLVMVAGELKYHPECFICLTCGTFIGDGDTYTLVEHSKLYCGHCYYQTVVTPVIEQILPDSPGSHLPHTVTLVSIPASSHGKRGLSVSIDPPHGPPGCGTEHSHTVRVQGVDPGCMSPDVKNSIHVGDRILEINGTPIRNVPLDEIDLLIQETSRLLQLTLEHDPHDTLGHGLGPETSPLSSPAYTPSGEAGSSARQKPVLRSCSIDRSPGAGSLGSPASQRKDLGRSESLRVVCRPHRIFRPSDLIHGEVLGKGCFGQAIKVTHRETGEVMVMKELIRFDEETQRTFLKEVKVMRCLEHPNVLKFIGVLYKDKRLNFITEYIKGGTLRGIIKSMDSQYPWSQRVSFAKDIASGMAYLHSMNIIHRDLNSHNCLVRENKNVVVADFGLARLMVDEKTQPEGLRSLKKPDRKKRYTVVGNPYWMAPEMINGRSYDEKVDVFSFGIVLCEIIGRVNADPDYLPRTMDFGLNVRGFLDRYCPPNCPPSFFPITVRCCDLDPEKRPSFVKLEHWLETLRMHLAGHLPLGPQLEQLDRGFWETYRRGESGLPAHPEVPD
UniProt Q8IWU2: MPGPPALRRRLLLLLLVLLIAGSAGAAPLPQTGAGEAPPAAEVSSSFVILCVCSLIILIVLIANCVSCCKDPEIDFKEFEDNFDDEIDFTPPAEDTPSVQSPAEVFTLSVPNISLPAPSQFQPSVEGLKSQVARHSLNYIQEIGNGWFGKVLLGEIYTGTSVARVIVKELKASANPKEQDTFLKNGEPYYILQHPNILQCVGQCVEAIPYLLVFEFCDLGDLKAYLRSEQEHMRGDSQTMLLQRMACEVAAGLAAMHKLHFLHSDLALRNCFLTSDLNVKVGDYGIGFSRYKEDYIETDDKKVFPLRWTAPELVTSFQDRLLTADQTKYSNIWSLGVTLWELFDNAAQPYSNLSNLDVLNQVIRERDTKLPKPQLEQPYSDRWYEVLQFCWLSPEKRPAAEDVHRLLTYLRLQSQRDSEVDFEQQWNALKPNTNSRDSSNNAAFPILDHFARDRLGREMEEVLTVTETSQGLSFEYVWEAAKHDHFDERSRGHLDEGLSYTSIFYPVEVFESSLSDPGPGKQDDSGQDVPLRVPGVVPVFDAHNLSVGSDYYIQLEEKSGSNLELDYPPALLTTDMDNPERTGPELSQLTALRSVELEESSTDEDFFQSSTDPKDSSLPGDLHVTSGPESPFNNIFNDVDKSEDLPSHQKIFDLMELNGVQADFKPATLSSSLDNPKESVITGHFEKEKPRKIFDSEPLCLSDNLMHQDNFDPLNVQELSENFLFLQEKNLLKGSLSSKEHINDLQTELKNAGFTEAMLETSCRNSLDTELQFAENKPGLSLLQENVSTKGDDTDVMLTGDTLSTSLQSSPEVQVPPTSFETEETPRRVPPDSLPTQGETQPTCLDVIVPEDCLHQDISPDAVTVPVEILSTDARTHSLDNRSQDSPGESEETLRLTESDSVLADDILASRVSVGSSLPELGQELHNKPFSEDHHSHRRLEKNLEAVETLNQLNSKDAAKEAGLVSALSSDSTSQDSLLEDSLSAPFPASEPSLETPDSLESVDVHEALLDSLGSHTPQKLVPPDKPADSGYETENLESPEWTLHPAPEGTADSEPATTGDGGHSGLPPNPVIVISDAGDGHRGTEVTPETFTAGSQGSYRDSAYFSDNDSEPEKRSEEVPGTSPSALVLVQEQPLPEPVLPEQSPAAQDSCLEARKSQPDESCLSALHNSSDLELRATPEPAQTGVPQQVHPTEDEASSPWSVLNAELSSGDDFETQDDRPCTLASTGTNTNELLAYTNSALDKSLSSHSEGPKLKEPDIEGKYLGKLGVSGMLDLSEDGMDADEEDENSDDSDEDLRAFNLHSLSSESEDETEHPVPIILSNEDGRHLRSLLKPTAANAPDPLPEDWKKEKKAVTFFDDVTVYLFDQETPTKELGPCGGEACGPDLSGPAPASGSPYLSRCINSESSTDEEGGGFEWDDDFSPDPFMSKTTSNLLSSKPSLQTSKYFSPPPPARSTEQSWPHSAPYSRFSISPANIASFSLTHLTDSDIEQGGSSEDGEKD
UniProt P28482, whole entry: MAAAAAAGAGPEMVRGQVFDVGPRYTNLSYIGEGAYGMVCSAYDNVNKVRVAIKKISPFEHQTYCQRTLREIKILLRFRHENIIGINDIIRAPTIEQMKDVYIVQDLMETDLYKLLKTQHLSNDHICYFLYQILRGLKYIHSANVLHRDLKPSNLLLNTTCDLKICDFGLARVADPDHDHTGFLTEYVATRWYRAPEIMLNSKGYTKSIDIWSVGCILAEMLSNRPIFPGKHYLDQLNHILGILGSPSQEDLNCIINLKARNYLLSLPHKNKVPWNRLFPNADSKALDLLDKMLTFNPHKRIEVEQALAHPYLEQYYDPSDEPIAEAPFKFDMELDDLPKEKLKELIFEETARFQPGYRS
UniProt P31152, whole entry: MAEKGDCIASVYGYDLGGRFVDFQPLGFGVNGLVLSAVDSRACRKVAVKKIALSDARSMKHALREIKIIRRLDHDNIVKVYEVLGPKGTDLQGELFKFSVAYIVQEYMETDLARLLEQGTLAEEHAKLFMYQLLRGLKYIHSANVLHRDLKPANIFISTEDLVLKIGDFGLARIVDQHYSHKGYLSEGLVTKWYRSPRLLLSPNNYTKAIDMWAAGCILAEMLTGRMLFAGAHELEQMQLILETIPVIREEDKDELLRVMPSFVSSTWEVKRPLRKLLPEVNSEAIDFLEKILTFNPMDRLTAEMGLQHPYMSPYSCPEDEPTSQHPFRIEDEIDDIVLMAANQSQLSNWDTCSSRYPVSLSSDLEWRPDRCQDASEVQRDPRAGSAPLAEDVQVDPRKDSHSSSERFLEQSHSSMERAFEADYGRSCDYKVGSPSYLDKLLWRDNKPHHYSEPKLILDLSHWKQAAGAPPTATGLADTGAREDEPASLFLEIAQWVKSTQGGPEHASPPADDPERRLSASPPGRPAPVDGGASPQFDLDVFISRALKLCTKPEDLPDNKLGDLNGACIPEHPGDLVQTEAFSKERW
UniProt Q9BUB5: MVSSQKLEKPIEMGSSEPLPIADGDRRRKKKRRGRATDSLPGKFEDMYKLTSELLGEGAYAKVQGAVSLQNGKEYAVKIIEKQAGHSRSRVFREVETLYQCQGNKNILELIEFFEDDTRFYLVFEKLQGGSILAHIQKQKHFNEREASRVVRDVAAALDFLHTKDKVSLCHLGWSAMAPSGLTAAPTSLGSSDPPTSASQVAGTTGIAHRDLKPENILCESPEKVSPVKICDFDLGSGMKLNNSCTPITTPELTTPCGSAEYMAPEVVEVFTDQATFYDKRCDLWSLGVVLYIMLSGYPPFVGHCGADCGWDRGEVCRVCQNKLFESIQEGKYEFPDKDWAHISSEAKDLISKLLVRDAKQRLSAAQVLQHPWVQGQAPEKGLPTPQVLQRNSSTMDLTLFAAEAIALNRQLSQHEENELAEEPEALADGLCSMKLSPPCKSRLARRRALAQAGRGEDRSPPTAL
UniProt Q16620, whole entry, looked up: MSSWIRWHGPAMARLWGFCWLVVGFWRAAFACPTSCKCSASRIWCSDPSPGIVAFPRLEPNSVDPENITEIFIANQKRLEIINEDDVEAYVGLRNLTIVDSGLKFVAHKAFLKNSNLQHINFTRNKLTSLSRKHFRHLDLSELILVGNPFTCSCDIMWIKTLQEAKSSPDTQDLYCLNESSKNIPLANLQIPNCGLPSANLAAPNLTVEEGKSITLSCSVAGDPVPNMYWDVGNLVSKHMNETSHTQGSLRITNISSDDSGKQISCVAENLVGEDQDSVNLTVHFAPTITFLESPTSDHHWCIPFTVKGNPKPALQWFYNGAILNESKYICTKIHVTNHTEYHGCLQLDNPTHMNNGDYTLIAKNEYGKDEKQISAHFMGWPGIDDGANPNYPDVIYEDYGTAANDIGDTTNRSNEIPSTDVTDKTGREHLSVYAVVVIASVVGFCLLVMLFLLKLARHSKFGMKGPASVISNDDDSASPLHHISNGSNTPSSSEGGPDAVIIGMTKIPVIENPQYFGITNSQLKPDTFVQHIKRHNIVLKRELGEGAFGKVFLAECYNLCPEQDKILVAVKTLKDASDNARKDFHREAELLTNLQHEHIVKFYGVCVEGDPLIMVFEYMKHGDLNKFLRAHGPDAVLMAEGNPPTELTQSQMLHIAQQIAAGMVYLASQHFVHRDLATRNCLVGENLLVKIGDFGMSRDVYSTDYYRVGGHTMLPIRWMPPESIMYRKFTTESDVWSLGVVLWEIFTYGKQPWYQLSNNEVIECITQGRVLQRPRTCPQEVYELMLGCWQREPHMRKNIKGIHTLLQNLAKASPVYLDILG

Assays:
Assay in all cases: number of time points (of 5) at which kinase-Nluc abundance scored as decreased, DMSO-normalised (count); higher = more persistent destabilization
Conditions in all cases: K562; 2-18 h
[1] = molecular target: FLT3 (UniProt P36888)
[2] = molecular target: FYN (UniProt P06241)
[3] = molecular target: GSK3A (UniProt P49840)
[4] = molecular target: HER2 (UniProt P04626)
[5] = molecular target: INSRR (UniProt P14616)
[6] = molecular target: IRAK3 (UniProt Q9Y616)
[7] = molecular target: JAK1 (UniProt P23458)
[8] = molecular target: LCK (UniProt P06239)
[9] = molecular target: LIMK1 (UniProt P53667)
[10] = molecular target: LIMK2 (UniProt P53671)
[11] = molecular target: LMTK2 (UniProt Q8IWU2)
[12] = molecular target: LYN (UniProt P07948)
[13] = molecular target: MAP2K1 (UniProt Q02750)
[14] = molecular target: MAP2K2 (UniProt P36507)
[15] = molecular target: MAP4K2 (UniProt Q12851)
[16] = molecular target: MAPK1 (UniProt P28482)
[17] = molecular target: MAPK4 (UniProt P31152)
[18] = molecular target: MAPKAPK2 (UniProt P49137)
[19] = molecular target: MKNK1 (UniProt Q9BUB5)
[20] = molecular target: NTRK2 (UniProt Q16620)

With `CC(C)Cn1ncc2cc(Oc3ccc(F)cc3F)c(C(=O)NCCN(C)C)cc21` [p38α inhibitor 1] (10 µM) the “number of time points” value [1] was 0, the “number of time points” value [2] was 0 and the “number of time points” value [3] was 0. The “number of time points” value [4] was 0, the “number of time points” value [5] was 0 and the “number of time points” value [6] was 0. The “number of time points” value [7] was 0, the “number of time points” value [8] was 0 and the “number of time points” value [9] was 0. The “number of time points” value [10] was 0, the “number of time points” value [11] was 0 and the “number of time points” value [12] was 0. For the same compound, the “number of time points” value [13] was 0, the “number of time points” value [14] was 0 and the “number of time points” value [15] was 0. The “number of time points” value [16] was 0, the “number of time points” value [17] was 0 and the “number of time points” value [18] was 0. For the same compound, the “number of time points” value [19] was 0 and the “number of time points” value [20] was 0.
In the case of `Cc1cnc(Nc2ccc(F)cc2Cl)nc1-c1c[nH]c(C(=O)N[C@H](CO)c2cccc(Cl)c2)c1` (10 µM), the “number of time points” value [1] is reported as 0, the “number of time points” value [2] is reported as 0 and the “number of time points” value [3] is reported as 0. The “number of time points” value [4] was 0, the “number of time points” value [5] was 0 and the “number of time points” value [6] was 0. The “number of time points” value [7] was 0, the “number of time points” value [8] was 0 and the “number of time points” value [9] was 0. For the same compound, the “number of time points” value [10] was 0, the “number of time points” value [11] was 0 and the “number of time points” value [12] was 0. The “number of time points” value [13] was 0, the “number of time points” value [14] was 0 and the “number of time points” value [15] was 0. The “number of time points” value [17] was 0, the “number of time points” value [18] was 0 and the “number of time points” value [19] was 0. For the same compound, the “number of time points” value [20] was 0.
For `NC(=O)c1sc2c([N+](=O)[O-])cc(C(F)(F)F)cc2[n+]1[O-]` [Cyclapolin 9] (10 µM), the “number of time points” value [1] was 0, the “number of time points” value [2] was 0 and the “number of time points” value [3] was 0. The “number of time points” value [4] was 0, the “number of time points” value [5] was 0 and the “number of time points” value [6] was 0. For the same compound, the “number of time points” value [7] was 0, the “number of time points” value [8] was 0 and the “number of time points” value [9] was 0. The “number of time points” value [10] was 0, the “number of time points” value [11] was 0 and the “number of time points” value [12] was 0. The “number of time points” value [13] was 0, the “number of time points” value [14] was 0 and the “number of time points” value [15] was 0. The “number of time points” value [16] was 0, the “number of time points” value [17] was 0 and the “number of time points” value [18] was 0. The “number of time points” value [19] was 0 and the “number of time points” value [20] was 0.
`N#Cc1cnc(Nc2cc(NC[C@H]3CNCCO3)c(C(F)(F)F)cn2)cn1` (10 µM) was tested, and the “number of time points” value [2] was 2, the “number of time points” value [3] was 0 and the “number of time points” value [4] was 3. The “number of time points” value [5] was 1, the “number of time points” value [6] was 0 and the “number of time points” value [7] was 2. For the same compound, the “number of time points” value [8] was 0, the “number of time points” value [9] was 0 and the “number of time points” value [10] was 1. For the same compound, the “number of time points” value [11] was 0, the “number of time points” value [12] was 3 and the “number of time points” value [13] was 0. The “number of time points” value [14] was 0, the “number of time points” value [15] was 0 and the “number of time points” value [16] was 0. The “number of time points” value [17] was 0, the “number of time points” value [18] was 0 and the “number of time points” value [19] was 0. For the same compound, the “number of time points” value [20] was 0.
For `O=C(Nc1ccc(F)cc1F)C(NC(=S)Nc1cc(C(F)(F)F)cc(C(F)(F)F)c1)c1ccccc1` (racemic) (2.5 µM), the “number of time points” value [1] was 0, the “number of time points” value [2] was 0 and the “number of time points” value [3] was 0. The “number of time points” value [4] was 0, the “number of time points” value [5] was 0 and the “number of time points” value [6] was 0. The “number of time points” value [7] was 0, the “number of time points” value [8] was 0 and the “number of time points” value [9] was 0. The “number of time points” value [10] was 0, the “number of time points” value [11] was 0 and the “number of time points” value [12] was 0. For the same compound, the “number of time points” value [13] was 0, the “number of time points” value [14] was 0 and the “number of time points” value [15] was 0. For the same compound, the “number of time points” value [16] was 0, the “number of time points” value [17] was 0 and the “number of time points” value [18] was 0. For the same compound, the “number of time points” value [19] was 0 and the “number of time points” value [20] was 0.
With `CN1CCC(Nc2nc(Nc3ccc(Oc4ccccc4)cc3)c3c(=O)[nH]cc(Br)c3n2)CC1` (2.5 µM) the “number of time points” value [2] was 3, the “number of time points” value [3] was 0 and the “number of time points” value [4] was 0. The “number of time points” value [5] was 0, the “number of time points” value [6] was 0 and the “number of time points” value [7] was 0. The “number of time points” value [8] was 0, the “number of time points” value [9] was 5 and the “number of time points” value [10] was 4. The “number of time points” value [11] was 0, the “number of time points” value [12] was 0 and the “number of time points” value [13] was 0. The “number of time points” value [14] was 0, the “number of time points” value [15] was 0 and the “number of time points” value [16] was 0. The “number of time points” value [17] was 1, the “number of time points” value [18] was 0 and the “number of time points” value [19] was 0. The “number of time points” value [20] was 0.
For `NCCNS(=O)(=O)c1ccc(Cl)c2ccncc12` [CKI-7 (free base)] (10 µM), the “number of time points” value [1] was 0, the “number of time points” value [2] was 0 and the “number of time points” value [3] was 0. The “number of time points” value [4] was 0, the “number of time points” value [5] was 0 and the “number of time points” value [6] was 0. The “number of time points” value [7] was 0, the “number of time points” value [8] was 0 and the “number of time points” value [9] was 0. For the same compound, the “number of time points” value [10] was 0, the “number of time points” value [11] was 0 and the “number of time points” value [12] was 0. The “number of time points” value [13] was 0, the “number of time points” value [14] was 0 and the “number of time points” value [15] was 0. For the same compound, the “number of time points” value [16] was 0, the “number of time points” value [17] was 0 and the “number of time points” value [18] was 0. For the same compound, the “number of time points” value [19] was 0 and the “number of time points” value [20] was 0.
`COc1ccc2cc1Oc1ccc(cc1)C[C@H]1c3cc(c(OC)cc3CCN1C)Oc1c(O)c(OC)cc3c1[C@H](C2)N(C)CC3` [Fangchinoline] (2.5 µM) was tested, and the “number of time points” value [1] was 0, the “number of time points” value [2] was 0 and the “number of time points” value [3] was 0. For the same compound, the “number of time points” value [4] was 0, the “number of time points” value [5] was 0 and the “number of time points” value [6] was 0. The “number of time points” value [7] was 0, the “number of time points” value [8] was 0 and the “number of time points” value [10] was 0. The “number of time points” value [11] was 0, the “number of time points” value [12] was 0 and the “number of time points” value [13] was 0. For the same compound, the “number of time points” value [14] was 0, the “number of time points” value [15] was 0 and the “number of time points” value [16] was 0. For the same compound, the “number of time points” value [17] was 0, the “number of time points” value [18] was 0 and the “number of time points” value [19] was 0. The “number of time points” value [20] was 0.
